PubChem BioAssay AID1259405 – NCATS | 2018
Screen: 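Mouse-designed siRNAs used to find CHO productivity engineering targets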 (primary screen). Cell system: Chinese hamster CHO-K1 ovary cells with stable secreted eGFP expression. Reagent: single siRNA against mouse genes, 0.8 pmol siRNA per well (2 µl of 400 nM stock). Timing: 3 days. Read-out: 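Per-well intracellular GFP measured by laser scanning cytometry, plus viability from ATP luminescence, each relative to plate median of non-targeting control wells, in %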. Scale: GFP, % of control: higher = more GFP per well, higher productivity; viability (ATP), % of control: higher = more viable cells (more ATP). Hit rule: 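Called active when intracellular GFP, relative to negative control, is at or above 120%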.
This is a random part of about 50,000 reagents tested. In the full data, about 4,000 (8%) got an active call. 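Mouse siRNA library applied to hamster cells; one well for each siRNA.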 The numbers tell different reagents against one gene apart.

Which result is listed for Elovl1 (GeneID 54325) #1?
GFP, % of control: 78.5; viability (ATP), % of control: 91.9; Call: inactive

What is on record for Elovl1 (GeneID 54325) #2?
GFP, % of control: 76.4; viability (ATP), % of control: 60.1; Call: inactive

Which result is listed for Elovl1 (GeneID 54325) #3?
GFP, % of control: 102; viability (ATP), % of control: 98.6; Call: inactive

For Lrrc1 (GeneID 214345) #1, what does the deposit list?
GFP, % of control: 52.8; viability (ATP), % of control: 48.2; Call: inactive

What did the screen give for Lrrc1 (GeneID 214345) #2?
GFP, % of control: 53.3; viability (ATP), % of control: 67.2; Call: inactive

Which result is listed for Lrrc1 (GeneID 214345) #3?
GFP, % of control: 129; viability (ATP), % of control: 80.5; Call: active

What did the screen give for Fis1 (GeneID 66437) #1?
GFP, % of control: 68.7; viability (ATP), % of control: 62.3; Call: inactive

What did the screen give for Fis1 (GeneID 66437) #2?
GFP, % of control: 96.9; viability (ATP), % of control: 109; Call: inactive

Which result is listed for Fis1 (GeneID 66437) #3?
GFP, % of control: 113; viability (ATP), % of control: 91.2; Call: inactive

With Bcat1 (GeneID 12035) #1, what was measured?
GFP, % of control: 109; viability (ATP), % of control: 99.5; Call: inactive

With Bcat1 (GeneID 12035) #2, what does the deposit list?
GFP, % of control: 63.5; viability (ATP), % of control: 112; Call: inactive

What is on record for Bcat1 (GeneID 12035) #3?
GFP, % of control: 105; viability (ATP), % of control: 110; Call: inactive

What did the screen give for Scd3 (GeneID 30049) #1?
GFP, % of control: 45.7; viability (ATP), % of control: 47; Call: inactive

What did the screen give for Scd3 (GeneID 30049) #2?
GFP, % of control: 64; viability (ATP), % of control: 75.9; Call: inactive

With Scd3 (GeneID 30049) #3, what does the deposit list?
GFP, % of control: 85.6; viability (ATP), % of control: 97; Call: inactive

What did the screen give for Uxt (GeneID 22294) #1?
GFP, % of control: 82.3; viability (ATP), % of control: 74.2; Call: inactive

For Uxt (GeneID 22294) #2, how do the results read?
GFP, % of control: 48.9; viability (ATP), % of control: 62.6; Call: inactive

With Uxt (GeneID 22294) #3, what was measured?
GFP, % of control: 67.7; viability (ATP), % of control: 87.7; Call: inactive

Entries listed so far whose gene name begins with L or l (3):
Lrrc1 (GeneID 214345) #1: GFP, % of control = 52.8; viability (ATP), % of control = 48.2; Call = inactive
Lrrc1 (GeneID 214345) #2: GFP, % of control = 53.3; viability (ATP), % of control = 67.2; Call = inactive
Lrrc1 (GeneID 214345) #3: GFP, % of control = 129; viability (ATP), % of control = 80.5; Call = active

Additional reagents follow:
With Or51a10 (GeneID 258326) #1, what does the deposit list?
GFP, % of control: 106; viability (ATP), % of control: 55.7; Call: inactive

With Or51a10 (GeneID 258326) #2, what was measured?
GFP, % of control: 113; viability (ATP), % of control: 24.1; Call: inactive

With Or51a10 (GeneID 258326) #3, what was measured?
GFP, % of control: 46.4; viability (ATP), % of control: 76.7; Call: inactive

With Prdm15 (GeneID 114604) #1, what was measured?
GFP, % of control: 140; viability (ATP), % of control: 112; Call: active

What is on record for Prdm15 (GeneID 114604) #2?
GFP, % of control: 40.7; viability (ATP), % of control: 45.8; Call: inactive

Which result is listed for Prdm15 (GeneID 114604) #3?
GFP, % of control: 79; viability (ATP), % of control: 101; Call: inactive

For Rps4l (GeneID 66184) #1, what was measured?
GFP, % of control: 89.7; viability (ATP), % of control: 65.2; Call: inactive

For Rps4l (GeneID 66184) #2, how do the results read?
GFP, % of control: 95.3; viability (ATP), % of control: 54.9; Call: inactive

For Rps4l (GeneID 66184) #3, how do the results read?
GFP, % of control: 51.5; viability (ATP), % of control: 74.9; Call: inactive

For Tmem234 (GeneID 76799) #1, what does the deposit list?
GFP, % of control: 131; viability (ATP), % of control: 80.1; Call: active

For Tmem234 (GeneID 76799) #2, what does the deposit list?
GFP, % of control: 86.2; viability (ATP), % of control: 91; Call: inactive

How did the screen score Tmem234 (GeneID 76799) #3?
GFP, % of control: 56.7; viability (ATP), % of control: 47.3; Call: inactive

What is on record for Sap130 (GeneID 269003) #1?
GFP, % of control: 66.4; viability (ATP), % of control: 53.2; Call: inactive

With Sap130 (GeneID 269003) #2, how do the results read?
GFP, % of control: 101; viability (ATP), % of control: 87.8; Call: inactive

For Sap130 (GeneID 269003) #3, how do the results read?
GFP, % of control: 26.2; viability (ATP), % of control: 43.1; Call: inactive

What did the screen give for Lyzl6 (GeneID 69444) #1?
GFP, % of control: 54; viability (ATP), % of control: 20.8; Call: inactive

What did the screen give for Lyzl6 (GeneID 69444) #2?
GFP, % of control: 81.8; viability (ATP), % of control: 79.9; Call: inactive

For Lyzl6 (GeneID 69444) #3, what does the deposit list?
GFP, % of control: 71.9; viability (ATP), % of control: 54.5; Call: inactive

What is on record for Or8c17 (GeneID 258875) #1?
GFP, % of control: 66.3; viability (ATP), % of control: 52; Call: inactive

What did the screen give for Or8c17 (GeneID 258875) #2?
GFP, % of control: 73.3; viability (ATP), % of control: 45.4; Call: inactive

Which result is listed for Or8c17 (GeneID 258875) #3?
GFP, % of control: 90.5; viability (ATP), % of control: 86.9; Call: inactive

For Trpc3 (GeneID 22065) #1, what was measured?
GFP, % of control: 78; viability (ATP), % of control: 91.8; Call: inactive

For Trpc3 (GeneID 22065) #2, how do the results read?
GFP, % of control: 132; viability (ATP), % of control: 97.8; Call: active

What is on record for Trpc3 (GeneID 22065) #3?
GFP, % of control: 104; viability (ATP), % of control: 113; Call: inactive

Which result is listed for Kcnab1 (GeneID 16497) #1?
GFP, % of control: 91.6; viability (ATP), % of control: 78; Call: inactive

With Kcnab1 (GeneID 16497) #2, how do the results read?
GFP, % of control: 95.9; viability (ATP), % of control: 69.7; Call: inactive

How did the screen score Kcnab1 (GeneID 16497) #3?
GFP, % of control: 83.5; viability (ATP), % of control: 72; Call: inactive

What did the screen give for P2ry4 (GeneID 57385) #1?
GFP, % of control: 104; viability (ATP), % of control: 77.9; Call: inactive

Which result is listed for P2ry4 (GeneID 57385) #2?
GFP, % of control: 118; viability (ATP), % of control: 84.2; Call: inactive

For P2ry4 (GeneID 57385) #3, what was measured?
GFP, % of control: 97.5; viability (ATP), % of control: 60; Call: inactive

What did the screen give for Wrn (GeneID 22427) #1?
GFP, % of control: 78.8; viability (ATP), % of control: 65.7; Call: inactive

For Wrn (GeneID 22427) #2, what does the deposit list?
GFP, % of control: 99.5; viability (ATP), % of control: 73.2; Call: inactive

How did the screen score Wrn (GeneID 22427) #3?
GFP, % of control: 86; viability (ATP), % of control: 86.1; Call: inactive

With Or2t26 (GeneID 258877) #1, how do the results read?
GFP, % of control: 59.2; viability (ATP), % of control: 70.9; Call: inactive

With Or2t26 (GeneID 258877) #2, how do the results read?
GFP, % of control: 106; viability (ATP), % of control: 76.3; Call: inactive

Which result is listed for Or2t26 (GeneID 258877) #3?
GFP, % of control: 66.1; viability (ATP), % of control: 93.8; Call: inactive
